# Measurements published in the supplement of paper PMC8728848.
# Some of the results follow.
# B1: FGF1 (Homo sapiens), P05230 (protein)
# chain: MAEGEITTFTALTEKFNLPPGNYKKPKLLYSNGGHFLRILPDGTVDGTRDRSDQHIQLQLSAESVGEVYIKSTETGQYLAMTDGLLYGSQTPNEECLFLERLEENHYNTYISKHAEKNWFVGLKKNGSCKRGPRTHYGQAILFLPLPASSED
# Tests used:
# Test in all cases: glycan array binding signal (z-score within array); higher = stronger binding
# Conditions in all cases: glycan notation: IUPAC condensed, linker removed
# Glc(b1-4)Glc = target: Glc(b1-4)Glc
# Method in brief: (§1)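 Glycan array data came from 3228 arrays in the Consortium for Functional Glycomics database, and only arrays with an available protein sequence were kept. Glycan names were put into IUPAC-condensed notation, and columns mapping to the same glycan were averaged. The binding signal is a within-array Z-score, averaged across arrays of one protein sequence run at different concentrations or buffers and across linkers. A negative Z-score can be read as non-binding.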
# Glc(b1-6)Glc = target: Glc(b1-6)Glc
# Method in brief: as §1
# GlcA(b1-3)Gal = target: GlcA(b1-3)Gal
# Method in brief: as §1
# GlcA(b1-3)GlcNAc = target: GlcA(b1-3)GlcNAc
# Method in brief: as §1
# GlcA(b1-6)Gal = target: GlcA(b1-6)Gal
# Method in brief: as §1
# [1] = target: GlcA3S(b1-3)Gal(b1-4)GlcNAc(b1-2)Man
# Method in brief: as §1
# [2] = target: GlcA3S(b1-3)Gal(b1-4)GlcNAc(b1-3)Gal(b1-4)Glc
# Method in brief: as §1
# [3] = target: GlcNAc(a1-3)Gal(b1-4)GlcNAc
# Method in brief: as §1
# [4] = target: GlcNAc(a1-4)Gal(b1-3)GlcNAc
# Method in brief: as §1
# [5] = target: GlcNAc(a1-4)Gal(b1-4)GalNAc
# Method in brief: as §1
# [6] = target: GlcNAc(a1-4)Gal(b1-4)GlcNAc
# Method in brief: as §1
# [7] = target: GlcNAc(a1-4)Gal(b1-4)GlcNAc(b1-3)Gal(b1-4)Glc
# Method in brief: as §1
# [8] = target: GlcNAc(a1-4)Gal(b1-4)GlcNAc(b1-3)Gal(b1-4)GlcNAc
# Method in brief: as §1
# [9] = target: GlcNAc(a1-4)Gal(b1-4)GlcNAc(b1-3)Gal(b1-4)GlcNAc(b1-3)Gal(b1-4)GlcNAc
# Method in brief: as §1
# [10] = target: GlcNAc(a1-4)Gal(b1-4)GlcNAc(b1-3)Gal(b1-4)[Fuc(a1-3)]GlcNAc(b1-3)Gal(b1-4)[Fuc(a1-3)]GlcNAc
# Method in brief: as §1
# [11] = target: GlcNAc(a1-6)Gal(b1-4)GlcNAc
# Method in brief: as §1
# [12] = target: GlcNAc(b1-2)Gal(b1-3)GalNAc
# Method in brief: as §1
# [13] = target: GlcNAc(b1-2)Man(a1-3)[GlcNAc(b1-2)Man(a1-6)]Man(b1-4)GlcNAc(b1-4)GlcNAc
# Method in brief: as §1
# [14] = target: GlcNAc(b1-2)Man(a1-3)[GlcNAc(b1-2)Man(a1-6)]Man(b1-4)GlcNAc(b1-4)[Fuc(a1-6)]GlcNAc
# Method in brief: as §1
# [15] = target: GlcNAc(b1-2)Man(a1-3)[GlcNAc(b1-4)][GlcNAc(b1-2)Man(a1-6)]Man(b1-4)GlcNAc(b1-4)GlcNAc
# Method in brief: as §1
# [16] = target: GlcNAc(b1-2)Man(a1-3)[GlcNAc(b1-4)][GlcNAc(b1-2)Man(a1-6)]Man(b1-4)GlcNAc(b1-4)[Fuc(a1-6)]GlcNAc
# Method in brief: as §1
# [17] = target: GlcNAc(b1-2)[GlcNAc(b1-4)]Man(a1-3)[GlcNAc(b1-2)Man(a1-6)]Man(b1-4)GlcNAc(b1-4)GlcNAc
# Method in brief: as §1
# [18] = target: GlcNAc(b1-2)[GlcNAc(b1-4)]Man(a1-3)[GlcNAc(b1-4)][GlcNAc(b1-2)Man(a1-6)]Man(b1-4)GlcNAc(b1-4)GlcNAc
# Method in brief: as §1
# [19] = target: GlcNAc(b1-2)[GlcNAc(b1-4)]Man(a1-3)[GlcNAc(b1-4)][GlcNAc(b1-2)[GlcNAc(b1-6)]Man(a1-6)]Man(b1-4)GlcNAc(b1-4)GlcNAc
# Method in brief: as §1
# [20] = target: GlcNAc(b1-2)[GlcNAc(b1-4)]Man(a1-3)[GlcNAc(b1-4)][GlcNAc(b1-2)[GlcNAc(b1-6)]Man(a1-6)]Man(b1-4)GlcNAc(b1-4)[Fuc(a1-6)]GlcNAc
# Method in brief: as §1
# [21] = target: GlcNAc(b1-2)[GlcNAc(b1-6)]Man(a1-6)[GlcNAc(b1-2)Man(a1-3)]Man(b1-4)GlcNAc(b1-4)GlcNAc
# Method in brief: as §1
# [22] = target: GlcNAc(b1-2)[GlcNAc(b1-6)]Man(a1-6)[GlcNAc(b1-2)Man(a1-3)]Man(b1-4)GlcNAc(b1-4)[Fuc(a1-6)]GlcNAc
# Method in brief: as §1
# [23] = target: GlcNAc(b1-2)[GlcNAc(b1-6)]Man(a1-6)[GlcNAc(b1-4)][GlcNAc(b1-2)Man(a1-3)]Man(b1-4)GlcNAc(b1-4)GlcNAc
# Method in brief: as §1
# GlcNAc(b1-3)Fuc = target: GlcNAc(b1-3)Fuc
# Method in brief: as §1
# GlcNAc(b1-3)Gal = target: GlcNAc(b1-3)Gal
# Method in brief: as §1
# [24] = target: GlcNAc(b1-3)Gal(b1-3)GalNAc
# Method in brief: as §1
# GlcNAc(b1-3)Gal(b1-4)Glc = target: GlcNAc(b1-3)Gal(b1-4)Glc
# Method in brief: as §1
# [25] = target: GlcNAc(b1-3)Gal(b1-4)GlcNAc
# Method in brief: as §1
# [26] = target: GlcNAc(b1-3)Gal(b1-4)GlcNAc(b1-2)Man(a1-3)[GlcNAc(b1-3)Gal(b1-4)GlcNAc(b1-2)Man(a1-6)]Man(b1-4)GlcNAc(b1-4)GlcNAc
# Method in brief: as §1
# [27] = target: GlcNAc(b1-3)Gal(b1-4)GlcNAc(b1-2)Man(a1-3)[GlcNAc(b1-3)Gal(b1-4)GlcNAc(b1-2)Man(a1-6)]Man(b1-4)GlcNAc(b1-4)[Fuc(a1-6)]GlcNAc
# Method in brief: as §1
# [28] = target: GlcNAc(b1-3)Gal(b1-4)GlcNAc(b1-2)[GlcNAc(b1-3)Gal(b1-4)GlcNAc(b1-6)]Man(a1-6)[GlcNAc(b1-3)Gal(b1-4)GlcNAc(b1-2)Man(a1-3)]Man(b1-4)GlcNAc(b1-4)GlcNAc
# Method in brief: as §1
# [29] = target: GlcNAc(b1-3)Gal(b1-4)GlcNAc(b1-3)Gal(b1-4)GlcNAc
# Method in brief: as §1
# [30] = target: GlcNAc(b1-3)Gal(b1-4)GlcNAc(b1-3)Gal(b1-4)GlcNAc(b1-2)Man(a1-3)[GlcNAc(b1-3)Gal(b1-4)GlcNAc(b1-3)Gal(b1-4)GlcNAc(b1-2)Man(a1-6)]Man(b1-4)GlcNAc(b1-4)GlcNAc
# Method in brief: as §1
# [31] = target: GlcNAc(b1-3)Gal(b1-4)GlcNAc(b1-3)Gal(b1-4)GlcNAc(b1-2)Man(a1-3)[GlcNAc(b1-3)Gal(b1-4)GlcNAc(b1-3)Gal(b1-4)GlcNAc(b1-2)Man(a1-6)]Man(b1-4)GlcNAc(b1-4)[Fuc(a1-6)]GlcNAc
# Method in brief: as §1
# [32] = target: GlcNAc(b1-3)Gal(b1-4)GlcNAc(b1-3)Gal(b1-4)GlcNAc(b1-2)[GlcNAc(b1-3)Gal(b1-4)GlcNAc(b1-3)Gal(b1-4)GlcNAc(b1-6)]Man(a1-6)[GlcNAc(b1-3)Gal(b1-4)GlcNAc(b1-3)Gal(b1-4)GlcNAc(b1-2)Man(a1-3)]Man(b1-4)GlcNAc(b1-4)[Fuc(a1-6)]GlcNAc
# Method in brief: as §1
# [33] = target: GlcNAc(b1-3)Gal(b1-4)GlcNAc(b1-3)Gal(b1-4)GlcNAc(b1-3)Gal(b1-4)GlcNAc(b1-2)Man(a1-3)[GlcNAc(b1-3)Gal(b1-4)GlcNAc(b1-3)Gal(b1-4)GlcNAc(b1-3)Gal(b1-4)GlcNAc(b1-2)Man(a1-6)]Man(b1-4)GlcNAc(b1-4)GlcNAc
# Method in brief: as §1
# [34] = target: GlcNAc(b1-3)Gal(b1-4)GlcNAc(b1-3)Gal(b1-4)GlcNAc(b1-3)Gal(b1-4)GlcNAc(b1-2)Man(a1-3)[GlcNAc(b1-3)Gal(b1-4)GlcNAc(b1-3)Gal(b1-4)GlcNAc(b1-3)Gal(b1-4)GlcNAc(b1-2)Man(a1-6)]Man(b1-4)GlcNAc(b1-4)[Fuc(a1-6)]GlcNAc
# Method in brief: as §1
# [35] = target: GlcNAc(b1-3)Gal(b1-4)GlcNAc(b1-3)Gal(b1-4)GlcNAc(b1-3)Gal(b1-4)GlcNAc(b1-2)[GlcNAc(b1-3)Gal(b1-4)GlcNAc(b1-3)Gal(b1-4)GlcNAc(b1-3)Gal(b1-4)GlcNAc(b1-6)]Man(a1-6)[GlcNAc(b1-3)Gal(b1-4)GlcNAc(b1-3)Gal(b1-4)GlcNAc(b1-3)Gal(b1-4)GlcNAc(b1-2)Man(a1-3)]Man(b1-4)GlcNAc(b1-4)[Fuc(a1-6)]GlcNAc
# Method in brief: as §1
# [36] = target: GlcNAc(b1-3)Gal(b1-4)GlcNAc(b1-3)Gal(b1-4)GlcNAc(b1-3)Gal(b1-4)GlcNAc(b1-3)Gal(b1-4)GlcNAc(b1-2)Man(a1-3)[GlcNAc(b1-3)Gal(b1-4)GlcNAc(b1-3)Gal(b1-4)GlcNAc(b1-3)Gal(b1-4)GlcNAc(b1-3)Gal(b1-4)GlcNAc(b1-2)Man(a1-6)]Man(b1-4)GlcNAc(b1-4)GlcNAc
# Method in brief: as §1
# [37] = target: GlcNAc(b1-3)Gal(b1-4)GlcNAc(b1-3)Gal(b1-4)GlcNAc(b1-3)Gal(b1-4)GlcNAc(b1-3)Gal(b1-4)GlcNAc(b1-2)Man(a1-3)[GlcNAc(b1-3)Gal(b1-4)GlcNAc(b1-3)Gal(b1-4)GlcNAc(b1-3)Gal(b1-4)GlcNAc(b1-3)Gal(b1-4)GlcNAc(b1-2)Man(a1-6)]Man(b1-4)GlcNAc(b1-4)[Fuc(a1-6)]GlcNAc
# Method in brief: as §1
binder,measurement,setting,value
B1,glycan array binding signal (z-score),Glc(b1-4)Glc,0.606
same,glycan array binding signal (z-score),Glc(b1-6)Glc,0.554
same,glycan array binding signal (z-score),GlcA(b1-3)Gal,0.241
same,glycan array binding signal (z-score),GlcA(b1-3)GlcNAc,0.105
same,glycan array binding signal (z-score),GlcA(b1-6)Gal,1.29
same,glycan array binding signal (z-score),[1],-0.693
same,glycan array binding signal (z-score),[2],-0.775
same,glycan array binding signal (z-score),[3],-0.427
same,glycan array binding signal (z-score),[4],-0.431
same,glycan array binding signal (z-score),[5],0.705
same,glycan array binding signal (z-score),[6],-0.259
same,glycan array binding signal (z-score),[7],-0.392
same,glycan array binding signal (z-score),[8],-0.122
same,glycan array binding signal (z-score),[9],-0.907
same,glycan array binding signal (z-score),[10],1.24
same,glycan array binding signal (z-score),[11],-0.134
same,glycan array binding signal (z-score),[12],0.748
same,glycan array binding signal (z-score),[13],-0.063
same,glycan array binding signal (z-score),[14],0.043
same,glycan array binding signal (z-score),[15],-0.529
same,glycan array binding signal (z-score),[16],-0.72
same,glycan array binding signal (z-score),[17],-0.865
same,glycan array binding signal (z-score),[18],-0.851
same,glycan array binding signal (z-score),[19],-0.751
same,glycan array binding signal (z-score),[20],-0.879
same,glycan array binding signal (z-score),[21],-0.943
same,glycan array binding signal (z-score),[22],0.145
same,glycan array binding signal (z-score),[23],-0.832
same,glycan array binding signal (z-score),GlcNAc(b1-3)Fuc,0.25
same,glycan array binding signal (z-score),GlcNAc(b1-3)Gal,-0.782
same,glycan array binding signal (z-score),[24],-0.627
same,glycan array binding signal (z-score),GlcNAc(b1-3)Gal(b1-4)Glc,-0.813
same,glycan array binding signal (z-score),[25],-0.815
same,glycan array binding signal (z-score),[26],-0.363
same,glycan array binding signal (z-score),[27],0.998
same,glycan array binding signal (z-score),[28],1.91
same,glycan array binding signal (z-score),[29],-1.16
same,glycan array binding signal (z-score),[30],0.296
same,glycan array binding signal (z-score),[31],-0.417
same,glycan array binding signal (z-score),[32],0.236
same,glycan array binding signal (z-score),[33],-0.668
same,glycan array binding signal (z-score),[34],1.12
same,glycan array binding signal (z-score),[35],-0.625
same,glycan array binding signal (z-score),[36],-0.577
same,glycan array binding signal (z-score),[37],-0.504

# Fetched one by one from above (four):
binder,measurement,setting,value
B1,glycan array binding signal (z-score),[31],-0.417
same,glycan array binding signal (z-score),[27],0.998
same,glycan array binding signal (z-score),[19],-0.751
same,glycan array binding signal (z-score),[18],-0.851
